Construct, isoform or probe ends are uncertain for at least one entry. Where a protein sequence is shown, tags need not be part of it.
Biological target: T1, T/EBP/NKX2.1 (TTF1) (UniProt P23441)
T1 sequence (looked up, limits assumed): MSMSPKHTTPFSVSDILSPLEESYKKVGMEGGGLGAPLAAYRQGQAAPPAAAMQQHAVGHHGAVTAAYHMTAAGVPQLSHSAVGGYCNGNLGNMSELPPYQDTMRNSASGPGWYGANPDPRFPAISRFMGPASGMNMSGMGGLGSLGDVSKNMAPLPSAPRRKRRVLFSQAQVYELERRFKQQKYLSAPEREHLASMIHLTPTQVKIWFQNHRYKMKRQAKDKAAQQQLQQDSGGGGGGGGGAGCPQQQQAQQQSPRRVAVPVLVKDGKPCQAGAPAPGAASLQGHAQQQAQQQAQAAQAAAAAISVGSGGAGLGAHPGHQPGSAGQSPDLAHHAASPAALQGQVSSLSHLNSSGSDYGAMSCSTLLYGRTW
Assay: footprint
Conditions: four protected regions; 2 ug protein; purified recombinant protein; protein details: bacterially expressed from pET-30a(+)-T/EBP/NKX2.1

TATAGGAAAGCATTCCTCTCAAACCCAACAGAAAGCCTTCACATCTGCTTTAGTGTTCTTCCAGGGGGAAATCCTTTGCCGTCTGTCATCATTTCTATGCTAGGGCTTGGGAAAGAACTACTTGAGACTACTTCTGTGAACAGCTTTGTTTCTCACGAGAATGTGATGAAAAGTGGAAAACCCTTCAGAATGTTTAGTTAGGAAGATTGCCCTGCATGCTCTTCTTTGCTGGGGTAAGTCAACAGGCAGTGGTTGAAATTCAGGTCTTCAGTGCATATATTAGTACCTCTGAGGAAAAGCAGCCATCAGGTGACAGCGAGCAGAACTATTGACACCGTGATTTTGTTGGG (double strand) [mouse UGRP1 promoter 307-bp fragment]
binding result: binds

Reference: US20040234982A1 (published 2004)
